The assay addresses RXRα (Homo sapiens, UniProt P19793). Description: biochemical.

Chains of the proteins cited; added tags and fusions are not shown. Residues count along the entry.
UniProt P19793, 223-462: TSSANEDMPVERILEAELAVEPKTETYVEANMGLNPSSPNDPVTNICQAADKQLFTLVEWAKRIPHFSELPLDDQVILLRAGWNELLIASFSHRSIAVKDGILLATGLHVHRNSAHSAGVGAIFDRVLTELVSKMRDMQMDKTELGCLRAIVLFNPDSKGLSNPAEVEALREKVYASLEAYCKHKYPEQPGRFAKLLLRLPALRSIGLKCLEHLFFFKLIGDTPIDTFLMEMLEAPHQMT

`CC(C)c1c(C(=O)Nc2ccccc2)c(-c2ccccc2)c(-c2ccc(F)cc2)n1CC[C@@H](O)C[C@@H](O)CC(=O)O` [atorvastatin] returned a Kd of 10.3 µM.

One may read the Kd as the concentration at which binding is half-saturated. A low value points to tighter binding.

These data come from publication PMC6447056 (Bioorganic chemistry, 2019).
